Data source: PubChem BioAssay AID504793 (Drosophila RNAi Screening Center, 2011)
The screen tested about 23,000 reagents; below is a random part of those that have a named target and a result. Over the whole deposit, 62 (0.27%) were called active. 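Calls come from follow-up tests whose scores are not deposited, so confirmed genes may have low counts here; counts are not normalised per plate.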 Raw values are not corrected between plates. Unmarked entries are inactive.

- Assay: 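Knock-downs allowing continued mitosis even though DNA is damaged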 (primary screen)
- System: Drosophila S2R+ cells
- Knock-down reagent: long dsRNA against Drosophila genes, about 0.25 µg dsRNA per well
- Duration: 4 days of dsRNA, then 4 hours of drug before read-out
- Treatment: doxorubicin 0.5 µM for 4 hours to cause double-strand breaks, in cells also given a low, harmless dose of dsRNA against nbs to sensitise the assay
- Detection: 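Per-well count of mitotic cells stained for phospho-histone H3 after doxorubicin exposure, used as mitotic index; counts are raw and not normalised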
- Direction: mitotic cells: higher = more cells in mitosis, weaker G2 arrest
- Rule for the call: 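Genes are called active only when high mitotic counts were reproduced with independent dsRNAs and mitosis was checked for delay without damage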
- Meaning of the calls: active = confirmed in follow-up tests; inactive = not confirmed

CG14931 [DRSC02413] gave mitotic cells, replicate 1 = 2.
Against SdhCL [DRSC16078], the values are mitotic cells, replicate 1 = 2.
Silencing of CG34408 [DRSC17733] gave: mitotic cells, replicate 1 = 6.
CG34408 [DRSC23056] scored mitotic cells, replicate 1 = 9.
For CG34408 [DRSC27286], the entry reads mitotic cells, replicate 1 = 8.
Depletion of CG34408 [DRSC28674] resulted in: mitotic cells, replicate 1 = 1.
Silencing of CG14618 [DRSC20631] gave: mitotic cells, replicate 1 = 8.
For piwi [DRSC03592] the deposit lists mitotic cells, replicate 1 = 4.
lectin-29Ca [DRSC02635] showed mitotic cells, replicate 1 = 4.
Jhbp7 [DRSC14408] scored mitotic cells, replicate 1 = 4.
With knock-down of Jhbp7 [DRSC25905] the results were mitotic cells, replicate 1 = 9.
Silencing of mxc [DRSC17819] came out at: mitotic cells, replicate 1 = 11.

A run of entries of the results above, as a working copy:
SdhCL [DRSC16078] | mitotic cells, replicate 1: 2
CG34408 [DRSC17733] | mitotic cells, replicate 1: 6
CG34408 [DRSC23056] | mitotic cells, replicate 1: 9
CG34408 [DRSC27286] | mitotic cells, replicate 1: 8

The results go on.
Silencing of CAH8 [DRSC15784] came out at: mitotic cells, replicate 1 = 5.
Depletion of hkb [DRSC12377] gave: mitotic cells, replicate 1 = 10.
hkb [DRSC23599] scored mitotic cells, replicate 1 = 7.
With knock-down of CG32452 [DRSC11581], the record shows mitotic cells, replicate 1 = 4.
For CG32452 [DRSC22250], the values are mitotic cells, replicate 1 = 5.
For CG32452 [DRSC26705] the deposit lists mitotic cells, replicate 1 = 5.
For Gabat [DRSC10846] the deposit lists mitotic cells, replicate 1 = 5.
Against CG1688 [DRSC23207], the values are mitotic cells, replicate 1 = 9.
For CG11286 [DRSC14293], the entry reads mitotic cells, replicate 1 = 5.
Peritrophin-15a [DRSC02636] scored mitotic cells, replicate 1 = 4.
Knock-down of Peritrophin-15a [DRSC29171] gave: mitotic cells, replicate 1 = 7.
After knock-down of Ugalt [DRSC18467], the record shows mitotic cells, replicate 1 = 8.
Against Osi9 [DRSC12278], the entry reads mitotic cells, replicate 1 = 4.
For Osi9 [DRSC28928] the deposit lists mitotic cells, replicate 1 = 2.
After knock-down of CG11122 [DRSC19382], the record shows mitotic cells, replicate 1 = 4.
Silencing of CG11122 [DRSC27302] resulted in: mitotic cells, replicate 1 = 6.
For ppk23 [DRSC20110], the entry reads mitotic cells, replicate 1 = 7.
For ppk23 [DRSC26441], the entry reads mitotic cells, replicate 1 = 4.
After knock-down of ND-51L1 [DRSC06072], the record shows mitotic cells, replicate 1 = 3.
For CG33269 [DRSC10585], the values are mitotic cells, replicate 1 = 12.
Against CG1513 [DRSC05194] the deposit lists mitotic cells, replicate 1 = 11.
Against CG1513 [DRSC06553], the values are mitotic cells, replicate 1 = 7.
With knock-down of CG1513 [DRSC06554] the results were mitotic cells, replicate 1 = 6.
